These are yes or no findings as the source states them, for the method shown. Binding seen in cells or lysates may run through a third protein. Some entries that bind do so weakly or less than the wild type.
Biological target: T1, bone morphogenetic protein and activin membrane-bound inhibitor (human (endogenous in BPH-1)) (UniProt Q13145)
T1 sequence: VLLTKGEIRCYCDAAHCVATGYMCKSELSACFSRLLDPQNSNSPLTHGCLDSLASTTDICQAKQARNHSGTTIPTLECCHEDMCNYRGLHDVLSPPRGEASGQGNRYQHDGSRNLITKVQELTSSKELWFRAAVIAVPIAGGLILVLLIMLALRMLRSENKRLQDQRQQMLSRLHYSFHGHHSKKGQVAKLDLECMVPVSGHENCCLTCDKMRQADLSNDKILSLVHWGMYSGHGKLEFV
Experiment: co-IP; antibodies against TGF-β1 or BAMBI immobilised on resin; BPH-1 cell lysate supernatant incubated at 4 °C for 1 h; eluate blotted with anti-TGF-β1 or anti-BAMBI; cells treated with LPS, TGF-β1 and with or without curcumin

By UniProt entry, the sequences of proteins in these tests, tags left out. Residues count along the entry.
UniProt P01137, residues 279-390: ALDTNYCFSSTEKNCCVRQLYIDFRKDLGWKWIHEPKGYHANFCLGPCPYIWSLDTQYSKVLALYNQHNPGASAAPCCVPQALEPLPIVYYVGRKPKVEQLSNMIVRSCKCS

**Q.** How did the binding turn out when “transforming growth factor β1 (from UniProt P01137 279-390) (ligand)” was run?
**A.** binds
